This is one part of the list.
Compound: CC1Cc2ccccc2N1C(=O)C1CCCN(C1)C(=O)CCl (mixture of isomers) [TRIM25 ligand 11 (diastereomer mixture)]
Assay: probe-labelled cysteine peptide fold change vs DMSO (competition) (log2 fold change); higher = less target engagement (more negative = stronger competition)
Details: THP-1, incubation time: 4 h
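Further: competitive chemoproteomic profiling in live THP-1 cells with an iodoacetamide desthiobiotin (IA-DTB) probe, comparing probe-labelled peptide intensities in compound-treated cells against DMSO-treated controls.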

By UniProt entry, the sequences of proteins in these tests, tags left out. Where a name states a change or a piece, a line headed by the entry shows the natural chain unless it says otherwise.
UniProt Q9P253: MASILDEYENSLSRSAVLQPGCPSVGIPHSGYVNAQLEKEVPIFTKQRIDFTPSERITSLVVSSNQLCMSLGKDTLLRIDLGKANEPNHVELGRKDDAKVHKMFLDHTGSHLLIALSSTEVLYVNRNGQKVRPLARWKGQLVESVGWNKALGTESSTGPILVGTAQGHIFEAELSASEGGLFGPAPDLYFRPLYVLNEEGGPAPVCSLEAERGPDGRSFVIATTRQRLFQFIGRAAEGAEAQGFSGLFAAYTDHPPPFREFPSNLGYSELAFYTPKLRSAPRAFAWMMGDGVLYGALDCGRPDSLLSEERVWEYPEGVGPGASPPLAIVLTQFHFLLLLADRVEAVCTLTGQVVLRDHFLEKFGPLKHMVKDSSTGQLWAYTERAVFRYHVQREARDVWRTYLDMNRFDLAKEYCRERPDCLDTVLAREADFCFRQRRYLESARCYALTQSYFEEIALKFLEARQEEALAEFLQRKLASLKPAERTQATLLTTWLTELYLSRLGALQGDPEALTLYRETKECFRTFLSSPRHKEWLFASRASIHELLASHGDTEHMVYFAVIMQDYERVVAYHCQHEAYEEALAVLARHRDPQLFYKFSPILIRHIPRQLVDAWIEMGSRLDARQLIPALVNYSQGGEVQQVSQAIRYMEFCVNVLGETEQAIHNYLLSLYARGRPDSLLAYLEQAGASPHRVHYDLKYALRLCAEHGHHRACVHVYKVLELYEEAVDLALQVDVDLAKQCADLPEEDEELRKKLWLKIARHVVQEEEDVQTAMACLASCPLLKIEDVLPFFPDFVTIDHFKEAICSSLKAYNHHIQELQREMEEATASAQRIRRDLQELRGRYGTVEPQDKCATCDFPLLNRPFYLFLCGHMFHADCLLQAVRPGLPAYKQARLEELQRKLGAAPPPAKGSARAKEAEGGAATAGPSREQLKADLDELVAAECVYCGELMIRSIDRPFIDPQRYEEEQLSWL
UniProt P26640: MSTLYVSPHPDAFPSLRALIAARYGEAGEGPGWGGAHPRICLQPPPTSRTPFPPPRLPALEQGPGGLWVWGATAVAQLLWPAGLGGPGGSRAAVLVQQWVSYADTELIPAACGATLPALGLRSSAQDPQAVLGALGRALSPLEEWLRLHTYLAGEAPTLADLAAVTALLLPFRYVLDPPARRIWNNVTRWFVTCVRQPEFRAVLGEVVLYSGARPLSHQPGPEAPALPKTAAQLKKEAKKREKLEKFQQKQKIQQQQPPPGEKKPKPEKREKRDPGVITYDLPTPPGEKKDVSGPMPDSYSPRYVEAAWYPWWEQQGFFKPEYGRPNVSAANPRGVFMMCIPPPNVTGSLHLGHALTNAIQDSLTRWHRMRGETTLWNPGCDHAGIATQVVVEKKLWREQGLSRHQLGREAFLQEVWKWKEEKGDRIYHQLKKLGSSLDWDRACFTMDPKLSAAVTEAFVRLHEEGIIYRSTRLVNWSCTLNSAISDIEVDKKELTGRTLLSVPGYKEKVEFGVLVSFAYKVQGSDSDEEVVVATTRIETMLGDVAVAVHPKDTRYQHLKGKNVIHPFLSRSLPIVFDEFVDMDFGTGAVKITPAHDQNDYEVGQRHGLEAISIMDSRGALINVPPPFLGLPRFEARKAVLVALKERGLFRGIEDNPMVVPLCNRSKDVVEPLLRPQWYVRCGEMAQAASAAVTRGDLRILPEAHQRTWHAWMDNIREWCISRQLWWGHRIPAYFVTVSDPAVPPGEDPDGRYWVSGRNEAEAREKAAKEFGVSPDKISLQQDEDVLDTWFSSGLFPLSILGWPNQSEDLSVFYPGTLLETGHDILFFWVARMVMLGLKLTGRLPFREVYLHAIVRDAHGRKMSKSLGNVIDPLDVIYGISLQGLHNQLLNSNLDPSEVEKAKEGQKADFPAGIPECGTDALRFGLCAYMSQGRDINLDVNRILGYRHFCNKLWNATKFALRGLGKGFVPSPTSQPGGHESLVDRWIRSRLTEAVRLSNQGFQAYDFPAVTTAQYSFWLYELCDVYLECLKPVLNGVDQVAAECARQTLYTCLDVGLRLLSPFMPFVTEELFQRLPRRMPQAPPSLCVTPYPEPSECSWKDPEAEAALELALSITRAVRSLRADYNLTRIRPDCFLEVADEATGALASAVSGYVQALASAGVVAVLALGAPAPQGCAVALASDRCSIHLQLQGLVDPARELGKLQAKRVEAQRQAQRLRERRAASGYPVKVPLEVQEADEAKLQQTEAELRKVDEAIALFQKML
UniProt P18206: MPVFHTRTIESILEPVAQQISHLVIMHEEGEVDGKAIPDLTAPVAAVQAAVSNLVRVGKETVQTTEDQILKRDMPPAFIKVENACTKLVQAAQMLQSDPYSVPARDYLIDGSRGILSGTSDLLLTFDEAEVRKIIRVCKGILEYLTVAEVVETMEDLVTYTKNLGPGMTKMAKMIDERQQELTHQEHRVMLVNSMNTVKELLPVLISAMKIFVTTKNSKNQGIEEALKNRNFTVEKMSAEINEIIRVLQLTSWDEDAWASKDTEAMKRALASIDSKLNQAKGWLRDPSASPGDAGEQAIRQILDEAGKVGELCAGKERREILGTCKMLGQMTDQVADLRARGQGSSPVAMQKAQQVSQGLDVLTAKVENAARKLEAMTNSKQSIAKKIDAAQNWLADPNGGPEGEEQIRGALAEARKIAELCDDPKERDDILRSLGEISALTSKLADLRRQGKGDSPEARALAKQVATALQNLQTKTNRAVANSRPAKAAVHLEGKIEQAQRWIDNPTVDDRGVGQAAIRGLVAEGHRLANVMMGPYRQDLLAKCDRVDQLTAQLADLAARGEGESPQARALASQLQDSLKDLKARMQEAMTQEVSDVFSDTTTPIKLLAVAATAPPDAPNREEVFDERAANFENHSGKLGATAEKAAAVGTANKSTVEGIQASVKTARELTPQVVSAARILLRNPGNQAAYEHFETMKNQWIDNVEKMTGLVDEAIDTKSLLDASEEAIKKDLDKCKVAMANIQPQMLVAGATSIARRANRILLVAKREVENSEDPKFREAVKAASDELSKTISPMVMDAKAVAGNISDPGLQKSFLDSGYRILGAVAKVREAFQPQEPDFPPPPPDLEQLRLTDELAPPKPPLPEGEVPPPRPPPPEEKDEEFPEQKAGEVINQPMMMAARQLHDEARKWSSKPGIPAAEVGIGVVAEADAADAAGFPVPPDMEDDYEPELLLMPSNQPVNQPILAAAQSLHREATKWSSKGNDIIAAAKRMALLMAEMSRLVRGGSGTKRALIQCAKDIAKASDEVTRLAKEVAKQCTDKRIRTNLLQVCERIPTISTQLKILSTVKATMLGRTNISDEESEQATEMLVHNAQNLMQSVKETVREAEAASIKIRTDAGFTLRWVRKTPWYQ
UniProt P08670, whole entry, looked up: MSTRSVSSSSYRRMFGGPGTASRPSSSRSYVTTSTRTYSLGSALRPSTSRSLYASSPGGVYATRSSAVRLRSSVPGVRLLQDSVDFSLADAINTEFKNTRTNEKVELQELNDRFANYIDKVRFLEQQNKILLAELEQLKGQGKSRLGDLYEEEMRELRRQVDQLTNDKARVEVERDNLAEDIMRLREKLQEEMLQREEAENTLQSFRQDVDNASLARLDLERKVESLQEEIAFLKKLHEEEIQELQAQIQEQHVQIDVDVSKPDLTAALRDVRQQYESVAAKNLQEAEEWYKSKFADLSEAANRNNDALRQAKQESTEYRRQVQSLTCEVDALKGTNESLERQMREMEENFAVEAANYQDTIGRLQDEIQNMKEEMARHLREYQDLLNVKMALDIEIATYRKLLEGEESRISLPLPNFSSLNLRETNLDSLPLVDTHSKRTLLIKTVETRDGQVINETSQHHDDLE
UniProt Q9UK41: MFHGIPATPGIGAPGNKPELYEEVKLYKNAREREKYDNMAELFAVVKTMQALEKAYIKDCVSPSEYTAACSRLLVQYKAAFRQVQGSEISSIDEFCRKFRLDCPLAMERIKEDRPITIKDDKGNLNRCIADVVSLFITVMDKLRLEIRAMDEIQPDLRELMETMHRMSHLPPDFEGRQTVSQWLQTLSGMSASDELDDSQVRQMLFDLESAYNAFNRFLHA
UniProt Q96JH7: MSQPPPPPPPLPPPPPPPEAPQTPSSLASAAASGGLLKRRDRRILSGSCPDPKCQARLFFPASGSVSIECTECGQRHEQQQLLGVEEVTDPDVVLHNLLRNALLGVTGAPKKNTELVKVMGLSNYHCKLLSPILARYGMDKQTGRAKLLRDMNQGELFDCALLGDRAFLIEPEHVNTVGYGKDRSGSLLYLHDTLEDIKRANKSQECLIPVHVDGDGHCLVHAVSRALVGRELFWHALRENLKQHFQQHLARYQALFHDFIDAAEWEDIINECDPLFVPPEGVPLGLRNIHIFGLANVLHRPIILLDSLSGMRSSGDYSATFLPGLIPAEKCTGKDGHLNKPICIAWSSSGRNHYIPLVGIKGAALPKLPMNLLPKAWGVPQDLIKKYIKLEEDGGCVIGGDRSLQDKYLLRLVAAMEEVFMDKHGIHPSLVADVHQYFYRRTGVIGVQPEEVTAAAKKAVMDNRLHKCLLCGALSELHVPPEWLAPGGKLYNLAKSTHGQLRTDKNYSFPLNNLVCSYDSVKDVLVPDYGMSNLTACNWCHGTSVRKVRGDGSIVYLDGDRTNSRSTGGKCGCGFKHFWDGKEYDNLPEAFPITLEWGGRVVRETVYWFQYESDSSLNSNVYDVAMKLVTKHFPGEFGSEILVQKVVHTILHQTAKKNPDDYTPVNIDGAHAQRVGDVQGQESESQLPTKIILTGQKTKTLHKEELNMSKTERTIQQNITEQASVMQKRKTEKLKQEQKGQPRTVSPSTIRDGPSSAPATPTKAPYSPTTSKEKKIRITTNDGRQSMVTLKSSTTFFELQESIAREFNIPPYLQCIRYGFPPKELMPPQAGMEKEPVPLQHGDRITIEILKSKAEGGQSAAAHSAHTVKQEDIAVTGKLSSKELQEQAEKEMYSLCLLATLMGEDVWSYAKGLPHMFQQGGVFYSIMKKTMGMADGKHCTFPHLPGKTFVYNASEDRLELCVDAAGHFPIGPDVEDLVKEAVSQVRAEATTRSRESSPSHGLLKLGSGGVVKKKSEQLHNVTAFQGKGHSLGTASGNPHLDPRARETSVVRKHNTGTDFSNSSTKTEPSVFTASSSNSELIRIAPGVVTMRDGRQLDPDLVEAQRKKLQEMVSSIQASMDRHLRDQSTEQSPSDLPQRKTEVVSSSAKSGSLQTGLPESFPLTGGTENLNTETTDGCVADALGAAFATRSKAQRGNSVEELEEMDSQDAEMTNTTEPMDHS
UniProt P61758, whole entry: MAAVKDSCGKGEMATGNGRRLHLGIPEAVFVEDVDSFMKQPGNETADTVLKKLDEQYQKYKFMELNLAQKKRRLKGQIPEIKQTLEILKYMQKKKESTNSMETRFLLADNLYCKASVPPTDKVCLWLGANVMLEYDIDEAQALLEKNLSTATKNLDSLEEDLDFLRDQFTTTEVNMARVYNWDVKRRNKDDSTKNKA
UniProt Q9Y5J1: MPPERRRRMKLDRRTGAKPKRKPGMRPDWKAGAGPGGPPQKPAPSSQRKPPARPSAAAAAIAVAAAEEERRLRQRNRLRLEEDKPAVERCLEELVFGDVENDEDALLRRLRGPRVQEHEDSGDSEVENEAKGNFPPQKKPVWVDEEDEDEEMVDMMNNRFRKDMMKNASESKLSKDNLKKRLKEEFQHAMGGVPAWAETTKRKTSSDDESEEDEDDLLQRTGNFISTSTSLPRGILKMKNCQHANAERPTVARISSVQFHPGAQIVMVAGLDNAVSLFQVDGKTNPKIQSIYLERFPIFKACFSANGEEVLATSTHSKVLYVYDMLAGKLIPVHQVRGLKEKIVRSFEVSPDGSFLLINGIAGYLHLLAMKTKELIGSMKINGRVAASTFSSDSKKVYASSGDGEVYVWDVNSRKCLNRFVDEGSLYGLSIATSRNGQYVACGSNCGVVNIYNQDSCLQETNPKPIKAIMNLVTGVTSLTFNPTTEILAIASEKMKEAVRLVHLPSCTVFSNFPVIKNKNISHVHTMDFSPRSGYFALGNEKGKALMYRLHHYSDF
UniProt Q9H7M9, whole entry: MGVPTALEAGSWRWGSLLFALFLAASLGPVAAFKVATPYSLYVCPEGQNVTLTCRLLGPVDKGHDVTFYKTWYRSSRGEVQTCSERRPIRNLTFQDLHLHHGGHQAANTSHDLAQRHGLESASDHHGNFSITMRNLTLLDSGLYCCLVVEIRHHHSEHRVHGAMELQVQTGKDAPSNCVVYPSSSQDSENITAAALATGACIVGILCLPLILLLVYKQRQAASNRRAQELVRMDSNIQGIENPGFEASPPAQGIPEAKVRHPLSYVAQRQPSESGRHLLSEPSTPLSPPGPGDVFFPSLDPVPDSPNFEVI

Target | probe-labelled cysteine peptide fold change (10 µM) | probe-labelled cysteine peptide fold change (50 µM)
VPS18_Q9P253_433_EADFCFR (UniProt Q9P253) | -0.0527 | -0.114
VARS_P26640_479_LVNWSCTLNSAISDIEVDKK (UniProt P26640) | 0.0307 | 0.108
VCL_P18206_325_EILGTCK (UniProt P18206) | 0.0764 | 0.0873
VIM_P08670_328_QVQSLTCEVDALK (UniProt P08670) | -0.0632 | -0.207
USP9Y_O00507_1238_YMPDICVIR (UniProt O00507) | -0.0169 | -0.186
VPS28_Q9UK41_128_CIADVVSLFITVMDK (UniProt Q9UK41) | -0.0669 | -0.0794
VARS_P26640_41_ICLQPPPTSR (UniProt P26640) | 0.0116 | -0.12
VPS72_Q15906_163_GPHCERPLTQEELLR (UniProt Q15906) | 0.0992 | -0.085
VIRMA_Q69YN4_1008_CTLTLLK (UniProt Q69YN4) | 0.0168 | 0.171
VPS28_Q9UK41_70_DCVSPSEYTAACSR (UniProt Q9UK41) | -0.0796 | 0.531
VCPIP1_Q96JH7_344_DGHLNKPICIAWSSSGR (UniProt Q96JH7) | -0.115 | 0.0325
VBP1_P61758_113_FLLADNLYCK (UniProt P61758) | -0.0132 | -0.0253
UTP18_Q9Y5J1_507_LVHLPSCTVFSNFPVIK (UniProt Q9Y5J1) | -0.0804 | -0.0221
VSIR_Q9H7M9_83_GEVQTCSER (UniProt Q9H7M9) | -0.0894 | 0.0102
VPS13C_Q709C8_1617_CNIADIK (UniProt Q709C8) | 0.0684 | 0.095

— the supplement of paper PMC12067093, “Discovery and optimisation of a covalent ligand for TRIM25 and its application to targeted protein ubiquitination” (Chemical Science, 2025)
